Test results from the supplement of paper PMC6078165.
± gives the standard deviation of the averaged measurements. The reference is the same well before dosing, and untreated signal decays as well.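 Fibroblast labels denote human fibroblasts, mainly primary ones from uterus (C12385, HUF), lung (H6013), bone (Hs27A), adrenal (HADF) and skin (WS1), plus mammary HMF and breast cancer-associated Hs343T. Cancer cells are basal-like or mesenchymal-like triple-negative breast cancer lines. A hit is a response shift exceeding 3x replicate standard deviation. The tissue of the other fibroblasts is not given here.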

System: BT20
Assay: relative JC-1 red fluorescence (viability) vs pre-drug, coculture with fibroblast (fraction); higher = more viable cancer cells
Conditions: 10 µM
Description: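 JC-1 labelled TNBC cells cocultured 1:1 (1,500 cells each) with CellTrace Violet stained primary or stromal fibroblasts in 384-well plates in FluoroBrite medium, treated with one of 42 anticancer drugs at 0.1, 1, 10 or 100 uM. JC-1 red fluorescence (mitochondrial integrity in cancer cells only) was read by plate reader every 8 h for 72 h. Values are normalised to each well's pre-drug value. The stock of one drug was tenfold lower, so its dose labels may be too high.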

CC/C(=C(\c1ccccc1)c1ccc(OCCN(C)C)cc1)c1ccccc1 [Tamoxifen]
relative JC-1 red fluorescence
Conditions | 24 h | 32 h | 40 h | 48 h | 56 h | 64 h | 72 h
coculture fibroblast: C12385 | – | 0.75 ± 0.052 | 0.692 ± 0.05 | 0.68 ± 0.056 | 0.664 ± 0.066 | 0.647 ± 0.082 | 0.631 ± 0.082
coculture fibroblast: H6013 | – | 0.901 ± 0.025 | 0.84 ± 0.026 | 0.832 ± 0.042 | 0.817 ± 0.043 | 0.79 ± 0.069 | 0.77 ± 0.096
coculture fibroblast: H6019 | – | 0.813 ± 0.025 | 0.772 ± 0.013 | 0.7622 ± 0.0059 | 0.739 ± 0.019 | 0.713 ± 0.037 | 0.697 ± 0.045
coculture fibroblast: H6076 | – | 0.879 ± 0.022 | 0.828 ± 0.055 | 0.791 ± 0.066 | 0.745 ± 0.073 | 0.739 ± 0.063 | 0.721 ± 0.079
coculture fibroblast: H6231 | 0.89 ± 0.016 | 0.82 ± 0.023 | 0.7494 ± 0.007 | 0.698 ± 0.0094 | 0.657 ± 0.028 | 0.621 ± 0.02 | 0.59 ± 0.032
coculture fibroblast: HADF | 0.8513 ± 0.0074 | 0.866 ± 0.02 | 0.825 ± 0.032 | 0.793 ± 0.036 | 0.767 ± 0.032 | 0.752 ± 0.028 | 0.724 ± 0.024
coculture fibroblast: HCFa | 0.806 ± 0.07 | 0.801 ± 0.027 | 0.826 ± 0.068 | 0.7539 ± 0.0022 | 0.811 ± 0.14 | 0.717 ± 0.048 | 0.723 ± 0.11
coculture fibroblast: HCPF | 0.883 ± 0.012 | 0.847 ± 0.021 | 0.789 ± 0.0083 | 0.738 ± 0.0035 | 0.6856 ± 0.0058 | 0.67 ± 0.018 | 0.611 ± 0.017
coculture fibroblast: HHSteC | 0.777 ± 0.12 | 0.757 ± 0.089 | 0.885 ± 0.15 | 0.802 ± 0.089 | 0.856 ± 0.19 | 0.849 ± 0.21 | 0.831 ± 0.2
coculture fibroblast: HMF | 0.941 ± 0.073 | 0.839 ± 0.17 | 0.949 ± 0.04 | 0.884 ± 0.04 | 0.82 ± 0.017 | 0.771 ± 0.038 | 0.727 ± 0.03
coculture fibroblast: HPFa | 0.8237 ± 0.0077 | 0.769 ± 0.011 | 0.711 ± 0.0084 | 0.6763 ± 0.0067 | 0.639 ± 0.0096 | 0.609 ± 0.024 | 0.579 ± 0.029
coculture fibroblast: HUF | 0.806 ± 0.04 | 0.851 ± 0.21 | 0.829 ± 0.21 | 0.804 ± 0.19 | 0.784 ± 0.2 | 0.754 ± 0.17 | 0.732 ± 0.15
coculture fibroblast: Hs5 | 0.874 ± 0.075 | 0.874 ± 0.025 | 0.9812 ± 0.0089 | 0.9494 ± 0.0071 | 0.896 ± 0.021 | 0.873 ± 0.036 | 0.856 ± 0.063
coculture fibroblast: Hs27A | 0.835 ± 0.057 | 0.896 ± 0.054 | 0.879 ± 0.048 | 0.79 ± 0.13 | 0.914 ± 0.08 | 0.937 ± 0.037 | 0.876 ± 0.04
coculture fibroblast: Hs343T | 0.885 ± 0.028 | 0.85 ± 0.029 | 0.801 ± 0.014 | 0.7679 ± 0.0052 | 0.696 ± 0.018 | 0.658 ± 0.018 | 0.625 ± 0.024
coculture fibroblast: WS1 | 0.783 ± 0.054 | 0.75 ± 0.087 | 0.743 ± 0.12 | 0.75 ± 0.15 | 0.75 ± 0.17 | 0.747 ± 0.16 | 0.76 ± 0.17
